Measured values as given in PubChem BioAssay AID588590 (National Center for Advancing Translational Sciences (NCATS), 2011).
The whole screen tested about 390,000 compounds, of which about 4,000 (1%) were called active. The shares of active, inactive and inconclusive entries below differ from those in the screen. Calls come from the whole dose curve; as a rule, active = well fitted inhibition curve with a large enough effect; inconclusive = small, poorly fitted or top-dose-only effect, or another doubt; inactive = no such curve, though single readings can be large or run the other way. Where the call is inconclusive, the potency comes from a doubtful curve fit.

Amino acid sequences for entries named in this document (tags omitted). A change or cut given only in a name is not applied to a line headed by its entry.
UniProt Q9UNA4: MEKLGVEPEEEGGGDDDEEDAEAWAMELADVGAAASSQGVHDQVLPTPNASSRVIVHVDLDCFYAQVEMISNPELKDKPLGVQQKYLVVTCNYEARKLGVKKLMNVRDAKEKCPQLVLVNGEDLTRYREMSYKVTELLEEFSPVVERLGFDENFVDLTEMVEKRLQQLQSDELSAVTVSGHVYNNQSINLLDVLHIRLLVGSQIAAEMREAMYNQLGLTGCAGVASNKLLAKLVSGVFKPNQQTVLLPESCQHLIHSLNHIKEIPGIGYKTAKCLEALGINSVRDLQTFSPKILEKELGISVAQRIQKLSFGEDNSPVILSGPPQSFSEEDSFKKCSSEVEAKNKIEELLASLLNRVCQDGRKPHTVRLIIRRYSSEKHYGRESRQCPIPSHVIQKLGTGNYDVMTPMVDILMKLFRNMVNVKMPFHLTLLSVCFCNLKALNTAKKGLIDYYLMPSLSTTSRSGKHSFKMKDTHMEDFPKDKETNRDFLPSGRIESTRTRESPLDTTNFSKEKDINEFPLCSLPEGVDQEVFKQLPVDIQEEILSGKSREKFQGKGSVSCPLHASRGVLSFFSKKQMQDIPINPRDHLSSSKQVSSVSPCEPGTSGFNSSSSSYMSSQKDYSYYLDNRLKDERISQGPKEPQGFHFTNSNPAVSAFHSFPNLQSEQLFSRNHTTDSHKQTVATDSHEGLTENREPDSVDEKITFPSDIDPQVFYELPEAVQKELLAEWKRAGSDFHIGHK

molecular target: DNA polymerase iota (Homo sapiens) (UniProt Q9UNA4); assay: qHTS for Inhibitors of Polymerase Iota; details: Pol iota fluorescent replication assay, 10 min; series mostly up to 115 µM
Procedure, shortened: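 Pol iota at 10 nM preincubated 15 min with compounds at room temperature; reaction started with fluorescent substrate, 50 nM final. Fluorescence read kinetically at 0 and 10 min; buffer-only wells as negative control.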
Potency is the fitted concentration of half-maximal effect.

Potency, inactive:
COc1ccc(/C=C2\C=Cc3ccccc32)cc1OC
O=C(C[n+]1cccc(Br)c1)c1ccc(F)cc1
Cc1ccccc1NC(=O)CC1NCCNC1=O (stereo not given)
N#CN=c1snc(-c2ccccc2Cl)n1-c1ccccc1Cl
O=C(CSc1nc(C2CC2)nc2ccccc12)Nc1ccccc1
COc1ccc(C)cc1NC(=O)c1ccc2c(c1)C(=O)N(Cc1ccncc1)C2=O
CCN1CCOC(=O)C1CC(=O)Nc1ccc(Br)cc1 (stereo not given)
CS(=O)(=O)N1CCc2cc(C(=O)N3CCCC3)ccc21
Cc1ccc(/C=N/NC(=O)C(=O)N/N=C/c2ccc(C)o2)o1
COc1cccc(CNC(=O)c2cccc(-n3c(C)nc4cccnc43)c2)c1OC
Cc1cc(=O)n(Cc2ccc(Cl)cc2)c2c1c(C)nn2-c1ccccc1
CC(Sc1nnc2ccccn12)C(=O)Nc1ccc2c(c1)OCO2 (stereo not given)
N#Cc1nc(-c2ccc(COc3ccc(Cl)cc3)o2)oc1N1CCC(C(N)=O)CC1
CCCCOc1ccc(-c2nc(/C=N/c3nccs3)c(O)o2)cc1
Cc1nc(-c2ccccc2)sc1-c1ccc(SCC(=O)NCc2ccccc2Cl)nn1

Potency, active:
COc1ccc(OCC(=O)Nc2cccc(C(=O)OCc3cc(=O)n4nc(C)sc4n3)c2)cc1 89.1 µM
COc1ccc(Nc2cc(C)nc(N3CCOCC3)n2)cc1 31.6 µM
CC(=O)c1ccccc1NS(=O)(=O)c1cccc2nsnc12 44.7 µM
CC(=O)N1c2ccc(S(=O)(=O)NCC3CCC(C(=O)N4CCC(C)CC4)CC3)cc2CC1C (stereo not given) 79.4 µM
Cc1ccc(-n2nc(-c3ccco3)cc2C(=O)O)cc1 17.8 µM

Potency, inconclusive:
COCc1cc(C)nc2sc(C(=O)Nc3ccc(C(C)=O)cc3)c(N)c12 89.1 µM [inhibitor, partial curve]
COc1cccc(NC(=O)c2sc3nc(C)c(C(=O)Nc4ccc(C)cc4C)c(-c4ccco4)c3c2N)c1 79.4 µM [inhibitor, partial curve]
COc1ccc(C(=O)Nn2c(CC(C)C)nc3cc(OC)c(OC)cc3c2=O)c(OC)c1 70.8 µM [inhibitor, single point]
COC(=O)c1c(C)oc2c1cc(NS(=O)(=O)c1ccc(C(=O)O)cc1)c1ccccc12 39.8 µM [inhibitor, single point]
CCCC1Cc2nc(Cl)c(C#N)cc2CO1 (stereo not given) 35.5 µM [inhibitor, single point]
Cc1ccc(Nc2nc(NCCCN3CCOCC3)nc(N)c2[N+](=O)[O-])cc1 1.41 µM [inhibitor, full curve, poor fit]
CCOC(=O)C1=CN(Cc2ccco2)S(=O)(=O)N(CC)C1c1ccc(C(F)(F)F)cc1 (stereo not given) 79.4 µM [inhibitor, single point]
CC(C)CNC(=O)C1Nc2ccccc2C2C=CCC12 (stereo not given) 39.8 µM [inhibitor, single point]
CC(=O)c1ccc(NC(=O)CSc2nnc(-c3ccco3)c(-c3ccco3)n2)cc1 4.47 µM [inhibitor, full curve, poor fit]
CC(NC(=O)/C(=C\c1ccco1)NC(=O)c1ccccc1Br)C(=O)O (stereo not given) 79.4 µM [inhibitor, partial curve]
COc1ccc2c(=O)c3c(=O)n(-c4ccccc4)c(-c4ccco4)nc3oc2c1 28.2 µM [inhibitor, full curve, poor fit]
C=CCNc1nnc(Cc2ccc(F)cc2)c(=O)[nH]1 100 µM [inhibitor, single point]
O=C(COc1cccc(F)c1)NNC(=O)c1cccc(-n2cccc2)c1 50.1 µM [inhibitor, partial curve, poor fit]
Cc1ccc(Cn2c(C(C)Nc3nc(-c4ccc(F)cc4)cs3)nc3cc(C(F)(F)F)ccc32)cc1 (stereo not given) 70.8 µM [inhibitor, single point]
CCOc1cc(/C=C2\C(=N)N3N=C(S(C)(=O)=O)SC3=NC2=O)ccc1OCCOc1cccc(OC)c1 15.8 µM [inhibitor, full curve, poor fit]
O=C1CSC(=S)N1/N=C/c1cccnc1 25.1 µM [inhibitor, single point]
CCOC(=O)C1=C(C)NC(=O)NC1c1ccc(OCC(N)=O)cc1 (stereo not given) 17.8 µM [inhibitor, partial curve, poor fit]
COc1ccc(/C=C2\SC(=S)NC2=O)cc1OS(=O)(=O)c1ccc(NC(C)=O)cc1 31.6 µM [inhibitor, single point]
CCOC(=O)c1c(N)sn(-c2ccccc2C)c1=S 10 µM [inhibitor, partial curve, poor fit]
COc1ccc(NC(=O)c2cc(-c3ccco3)on2)cc1OC 44.7 µM [inhibitor, partial curve, poor fit]
CCCCCCCN1C(N(C)C)=NC[C@@H]1Cc1ccccc1 22.4 µM [inhibitor, single point]
COc1ccccc1-c1noc(-c2ccc(NC3CCCC3)c([N+](=O)[O-])c2)n1 39.8 µM [inhibitor, partial curve, poor fit]
Cc1cc2nc(-c3ccc(NC(=O)c4ccccc4F)cc3)oc2cc1C 89.1 µM [inhibitor, single point]
O=C1NC(c2ccc(Br)cc2)Nc2sc3c(c21)CCC3 (stereo not given) 39.8 µM [inhibitor, full curve, poor fit]
CCCCCCCCN1[C@@H](CC(C)=O)c2ccc(/C=C/C(C)=O)cc2S1(=O)=O 20 µM [inhibitor, full curve]
CCOC(=O)/C=C(\C)Sc1cc(O)c2ccccc2c1O 2.82 µM [inhibitor, partial curve, poor fit]
Cc1ccccc1-n1c(SC/C(O)=C(\C#N)c2nc3ccccc3[nH]2)nnc1-c1ccncc1 35.5 µM [inhibitor, single point]
Cc1ccc(C)c(NC(=O)CN(C)S(=O)(=O)c2ccc(F)cc2)c1 89.1 µM [inhibitor, partial curve, poor fit]
CC1CN(S(=O)(=O)c2cccc(C(=O)OCc3cc(=O)oc4cc(O)ccc34)c2)CC(C)O1 (stereo not given) 22.4 µM [inhibitor, full curve]
C/C(=N\NC(=O)c1csc(C)c1C)c1ccc(Cl)s1 17.8 µM [inhibitor, single point]
COC(=O)c1cccc(N2C(=O)C(Cl)=C(N3CCOCC3)C2=O)c1 22.4 µM [inhibitor, single point]
COc1ccccc1NS(=O)(=O)c1ccc(-c2cc(C)no2)s1 15.8 µM [inhibitor, partial curve, poor fit]
Cc1cccc(/C=C(\C(=O)O)c2ccc(S(=O)(=O)N3CCCC3)s2)c1 56.2 µM [inhibitor, partial curve, poor fit]
O=S(=O)(Nc1ccc(O)c2ccccc12)c1ccc(OC(F)(F)F)cc1 22.4 µM [inhibitor, full curve, poor fit]
O=C(CN1C(=O)CCS(=O)(=O)c2ccccc21)NCc1ccc2c(c1)OCO2 14.1 µM [inhibitor, partial curve, poor fit]
CC(C)[C@@H]1CN=C(N)N1C[C@@H]1CCCN1C[C@H](C)N1C[C@@H](Cc2ccccc2)N(CCc2ccc(Cl)c(Cl)c2)C1=N 1.26 µM [inhibitor, partial curve, poor fit]
Cc1nn(C)c2c1c(-c1ccccc1)cc(=O)n2CC(=O)NC(C)c1ccccc1 (stereo not given) 56.2 µM [inhibitor, partial curve, poor fit]
O=C(C1COc2ccccc2O1)N1CCN(c2nc3ccc([N+](=O)[O-])cc3s2)CC1 (stereo not given) 89.1 µM [inhibitor, single point]
Nc1ccn([C@H]2C[C@H](O)[C@@H](CO)O2)c(=O)n1 39.8 µM [inhibitor, single point]
O=C(O)CCc1ccc(-c2ccccc2)n1Cc1ccco1 35.5 µM [inhibitor, partial curve, poor fit]
O=C(CC1OC(=O)c2ccccc21)c1ccco1 (stereo not given) 11.2 µM [inhibitor, partial curve, poor fit]
O=C(Nc1cccc(C(F)(F)F)c1)c1cccnc1N1CCN(c2ccccc2)CC1 17.8 µM [inhibitor, single point]
CC1Cc2cc(S(=O)(=O)CCC(=O)NCc3ccco3)ccc2N1C(=O)C1CC1 (stereo not given) 39.8 µM [inhibitor, partial curve, poor fit]
CS/C(=C\[N+](=O)[O-])Nc1ccc(F)cc1 39.8 µM [inhibitor, partial curve, poor fit]
COc1cc2sc3ccc(C#Cc4ccccn4)cc3c(=O)c2cc1OC 1.58 µM [inhibitor, full curve, poor fit]

As a working copy, some entries already given:
Potency, inconclusive:
CC(NC(=O)/C(=C\c1ccco1)NC(=O)c1ccccc1Br)C(=O)O (stereo not given) 79.4 µM [inhibitor, partial curve]
COc1ccc2c(=O)c3c(=O)n(-c4ccccc4)c(-c4ccco4)nc3oc2c1 28.2 µM [inhibitor, full curve, poor fit]
C=CCNc1nnc(Cc2ccc(F)cc2)c(=O)[nH]1 100 µM [inhibitor, single point]
O=C(COc1cccc(F)c1)NNC(=O)c1cccc(-n2cccc2)c1 50.1 µM [inhibitor, partial curve, poor fit]
